From article PMC9472610
No constants are given. Whether binding was seen depends on the method and setting. In cells and extracts the contact can be indirect. Some entries that bind do so weakly or less than the wild type. For some assays here: Sequences can lack the tags named with a protein.

Chains of the proteins cited; added tags and fusions are not shown.
UniProt Q9UNE7: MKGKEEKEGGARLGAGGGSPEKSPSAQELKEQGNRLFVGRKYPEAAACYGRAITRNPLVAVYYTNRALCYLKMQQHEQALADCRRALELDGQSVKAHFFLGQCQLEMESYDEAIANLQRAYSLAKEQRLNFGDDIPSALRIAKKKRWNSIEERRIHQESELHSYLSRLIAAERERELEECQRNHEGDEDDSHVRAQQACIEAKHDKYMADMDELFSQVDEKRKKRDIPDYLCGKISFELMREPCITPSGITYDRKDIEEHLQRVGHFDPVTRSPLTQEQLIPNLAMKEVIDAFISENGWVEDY

T1: IFN regulatory factor 1 (IRF1), wild type (human) (UniProt P10914)
T1 sequence: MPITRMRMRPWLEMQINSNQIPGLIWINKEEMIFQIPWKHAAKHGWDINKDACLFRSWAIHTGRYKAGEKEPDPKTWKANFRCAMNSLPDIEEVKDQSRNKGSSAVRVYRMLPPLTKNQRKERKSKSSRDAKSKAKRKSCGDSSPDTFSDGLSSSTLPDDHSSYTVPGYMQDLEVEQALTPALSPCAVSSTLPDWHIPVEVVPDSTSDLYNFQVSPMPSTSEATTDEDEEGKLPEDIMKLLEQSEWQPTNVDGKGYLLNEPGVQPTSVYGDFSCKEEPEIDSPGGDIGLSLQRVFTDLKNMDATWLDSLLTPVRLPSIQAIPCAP

T2: XIAP-associated factor 1 (XAF1), Flag-tagged (human) (UniProt Q6GPH4)
T2 sequence: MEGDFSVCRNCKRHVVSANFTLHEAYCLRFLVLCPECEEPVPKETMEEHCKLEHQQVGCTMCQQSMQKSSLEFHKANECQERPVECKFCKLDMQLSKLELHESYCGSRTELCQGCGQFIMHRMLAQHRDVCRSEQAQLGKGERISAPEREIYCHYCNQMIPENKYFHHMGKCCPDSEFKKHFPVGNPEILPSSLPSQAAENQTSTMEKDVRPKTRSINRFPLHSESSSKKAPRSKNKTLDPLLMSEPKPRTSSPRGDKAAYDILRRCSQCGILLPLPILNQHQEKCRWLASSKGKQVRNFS

B1: IFN regulatory factor 1 (IRF1), wild type (protein, UniProt P10914 1-325)
chain: T1 sequence

How the values were obtained:
[1] = target: T1, IFN regulatory factor 1 (IRF1), wild type (human); test: co-IP; HEK293T cells in a 10-cm dish transfected with IRF1 and CHIP plasmids, with or without XAF1, for 24 h; lysis in 50 mM Tris-HCl pH 7.5, 150 mM NaCl, 1 mM EDTA, 1% Triton X-100; immunoblot
[2] = target: T2, XIAP-associated factor 1 (XAF1), Flag-tagged (human); test: co-IP; HEK293T cells cotransfected with XAF1 and IRF1 (WT or truncated mutants) plasmids for 24 h; lysis in 50 mM Tris-HCl pH 7.5, 150 mM NaCl, 1 mM EDTA, 1% Triton X-100; FLAG M2 Affinity Gel, anti-HA-Agarose or antibodies plus protein A/G beads overnight; immunoblot

| Molecule | binding [1] | binding [2] |
| --- | --- | --- |
| CHIP (E3 ligase) (from UniProt Q9UNE7 1-303) (enzyme) | binds |  |
| B1 |  | binds |
